# The whole screen tested about 340,000 compounds, of which about 170 (0.05%) were called active. Inconclusive means that the source gave no clear call. Such entries were picked first, then a sample of the others. The call rests on the fitted dose curve; in most records, active means well fitted inhibition curve with a large enough effect in the signal ratio, with a control signal flat (not every such curve was filed as active); inconclusive means small, poorly fitted or top-dose-only effect, or effect the other way, or a change in a side signal; inactive means flat fitted curve, though single readings scatter; the % refers to the signal ratio. A potency beside an inconclusive call is a rough fit, not a confirmed value.
# Experiment: qHTS Assay to Find Inhibitors of Chronic Active B-Cell Receptor Signaling;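 on activity change, negative = inhibition: plate controls were basal doxycycline-induced cells for no effect and cells given 10 µM MG132 for full effect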
# Conditions: ABC-DLBCL IkBa-CBG/CBR reporter, luminescence ratio (green luciferase fused to IkBa over red control in TMD8 lymphoma cells), 4 h; activity change, negative = inhibition: at 46.1 µM (top of the series)
# Method in brief: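 Concentration-response series (up to 46 uM) were applied to TMD8 dual-reporter cells for 4 h at 37C with doxycycline. Green/red ratio, after filter-overlap correction, defined %Activity; red signal alone was normalised to basal cells and zero luminescence.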
# Potency means the concentration at half of the fitted maximal effect.
SMILES,"activity change, negative = inhibition",Potency
CCOc1cccc(-c2nnc(SCC(=O)Nc3cc(C)ccc3OC)n2N)c1,inconclusive: -1.56%,
CCCCC(=O)NC(=S)NNC(=O)c1ccc(Cl)cc1Cl,inconclusive: 7.29%,
COc1ccccc1-n1c([S-])c(C(=O)Nc2ccccc2C(F)(F)F)[n+]2ccc(C(=O)NCCO)cc12,,"inconclusive: 11.2 µM [falling, partial curve]"
COc1ccc(C(=O)NCCCc2nc3ccccc3n2Cc2cc(C)ccc2C)cc1OC,inconclusive: -17.1%,
CC(C)Oc1ccc(C(=O)NC2(C(F)(F)F)NC(=O)N(CCCc3ccccc3)C2=O)cc1 (stereo not drawn),inactive,
O=C(CCCC(=O)N/N=C/c1ccccc1C(=O)O)N/N=C/c1ccccc1C(=O)O,inactive,
N#C/C(=C\c1c(Cl)cccc1Cl)c1nn(-c2ccccc2)c(-n2cccc2)c1C#N,inactive,
COC1CCN(C(=O)c2ccc(OC3CCN(Cc4ccccn4)CC3)cc2)CC1,,"inconclusive: 3.16 µM [falling, partial curve, poor fit]"
CCn1nc(C)c(CN2CCC(C(=O)Nc3cccc(-c4cccc(F)c4)c3)CC2)c1C,inconclusive: -16.2%,
COc1ccc(NC(=S)N(CCCN2CCOCC2)Cc2ccccn2)cc1,inactive,
FC(F)(F)c1ccccc1N/N=C/c1cccnc1,,"inconclusive: 22.4 µM [falling, single point]"
O=C(CSc1nncn1-c1ccccc1)Nc1c(F)cccc1F,,"inconclusive: 22.4 µM [falling, single point]"
Oc1ccccc1-c1n[nH]c(=S)n1Cc1ccccc1,inconclusive: 1.55%,
CCC1CCCCN1C(=O)COC(=O)c1n[nH]c2ccccc12 (stereo not drawn),,"inconclusive: 29.1 µM [falling, single point]"
CCOC(=O)c1c(C)[nH]c(C)c1C(=O)CSc1nc2ccccc2c(=O)n1-c1ccccc1C,inconclusive: -10%,
COc1ccc(NC(=O)c2ccccc2NC(=O)C2CCCO2)cc1 (stereo not drawn),,"inconclusive: 20.6 µM [falling, single point]"
COc1ccc(C(=O)Nc2nc3ccc(S(C)(=O)=O)cc3s2)cc1OC,inconclusive: 2.84%,
CCN(CC)CCOC(=O)c1ccc(NC(=O)COc2cc(=O)n(CC)c3ccccc23)cc1,,"inconclusive: 29.1 µM [falling, single point]"
CCOC(=O)C1=C(N)OC(CCl)=C(C#N)C1c1ccsc1 (stereo not drawn),inactive,
Cc1ccccc1/C=C1\OC(=O)c2ccccc21,,"inconclusive: 25.1 µM [falling, partial curve]"
COC(=O)c1ccc(C(=O)Nc2ccc(C(C)C)cc2N)cc1,,"inconclusive: 10 µM [falling, partial curve, poor fit]"
COc1ccccc1-c1cc(C(=O)NCc2ccc(F)cc2)no1,inconclusive: -17.1%,
C/C(=N\OC(=O)c1ccc(Cl)cc1)c1sc(-c2ccccc2)nc1C,inactive,
COc1ccc(NN=Nc2ccc([N+](=O)[O-])cc2)cc1,inconclusive: 8.23%,
NC(=O)C(c1ccc(Cl)cc1)c1ccc(Sc2ccc(Cl)cc2)nn1 (stereo not drawn),inconclusive: -31.6%,
CC1=NN(c2cccc([N+](=O)[O-])c2)C(=O)C1,inconclusive: -26.3%,

SMILES,"activity change, negative = inhibition",Potency
Cc1occc1C(=O)N/N=C/c1ccc2c(c1)OCO2,,"inconclusive: 35.5 µM [rising, single point]"
O=C(NCC(c1ccco1)N1CCCC1)c1cc(S(=O)(=O)N2CCCCC2)ccc1Cl (stereo not drawn),inactive,
COc1ccc(N2C(=O)CC(Nc3ccc(F)cc3)C2=O)c([N+](=O)[O-])c1 (stereo not drawn),inconclusive: -4.98%,
CCCCN(C(=O)c1cccc(S(=O)(=O)N(C)c2ccc(C)cc2)c1)c1c(N)n(CCCC)c(=O)[nH]c1=O,inactive,
COc1ccccc1CNCc1cc(Br)ccc1OC,inconclusive: -21%,
CCOC(=O)Cc1csc(NC(=O)/C=C/c2cccc(Br)c2)n1,,"inconclusive: 15.8 µM [falling, partial curve]"
O=C(Nc1cccc(Cl)c1)c1cc(S(=O)(=O)NCCc2ccc(Cl)cc2)ccc1F,inconclusive: 20.6%,
c1ccc2c(c1)ccc1nnc(-c3ccc4c(c3)OCO4)n12,inconclusive: 12.8%,
O=C(O)C1CCCN(S(=O)(=O)c2ccc3c(c2)OCCO3)C1 (stereo not drawn),inconclusive: 4.63%,
CCOC(=O)c1[nH]c(C)c(/C(O)=C2\C(=O)C(=O)N(CCN(C)C)C2c2cccc(OC)c2OC)c1C (stereo not drawn),inconclusive: -5.03%,
CC1(C(=O)Nc2cccc(-n3cnnn3)c2)Cc2ccccc2C(=O)O1 (stereo not drawn),,"inconclusive: 18.4 µM [falling, single point]"
CN(C)S(=O)(=O)c1cccc(NC(=O)CCCc2nc3ccccc3c(=O)[nH]2)c1,,"inconclusive: 2.91 µM [rising, full curve, poor fit]"
COc1ccc(Cl)cc1NC(=O)CN(C)C(=O)c1n[nH]c2ccccc12,inconclusive: 2.87%,
Nc1ccc(C(=O)N/N=C/c2cn(Cc3cccc(F)c3)c3ccccc23)cc1,,"inconclusive: 11.2 µM [falling, partial curve]"
O=C1CSC(c2ccccc2)N1Nc1nc(N2CCOCC2)nc(N2CCOCC2)n1 (stereo not drawn),,"inconclusive: 4.47 µM [falling, partial curve, poor fit]"
Cc1ccc(C(=O)NCCOc2cccc3cccnc23)cc1Cl,inconclusive: 11.7%,
COC1(c2ccccc2)NC(=S)NN=C1c1ccccc1 (stereo not drawn),inactive,
CCOC(=O)C1CCCN(C(=O)c2cc(-c3ccccc3)on2)C1 (stereo not drawn),inconclusive: 5.44%,
CC1CCC(NC(=O)CCCn2sc3ccccc3c2=O)CC1 (stereo not drawn),inactive,
CCOc1ccc(OCC)c(NC(=O)CN(C)S(=O)(=O)c2cnc[nH]2)c1,inconclusive: -8.49%,
Nc1c(N(CCC2=CCCCC2)C(=O)COc2ccc(F)cc2)c(=O)[nH]c(=O)n1Cc1ccccc1,inactive,
COc1ccc(CNc2cccc3[nH]c(C(F)(F)F)nc23)cc1,inactive,
COc1ccc(OC)c2sc(NC(=O)CCSc3ccccc3)nc12,,"inconclusive: 2.06 µM [rising, full curve, poor fit]"
CC(=O)N(C(C)=O)c1nc(-c2ccccc2)cn1/N=C/c1cccc([N+](=O)[O-])c1,inactive,
COc1ccccc1/C=C/C(=O)N1CCN(S(=O)(=O)c2cc(C)ccc2C)CC1,inconclusive: -0.775%,
COc1ccccc1N1CCN(C(=O)C2CCN(C(=O)c3ccccc3Cl)CC2)CC1,inactive,

SMILES,"activity change, negative = inhibition",Potency
O=C(O)Cn1c(=O)cnc2ccccc21,inconclusive: 2.64%,
CN(CC(=O)Nc1ccccc1Cl)C(=O)c1cccc(S(=O)(=O)N2CCN(c3ccc(F)cc3)CC2)c1,inconclusive: 4.11%,
Cc1onc(-c2ccccc2Cl)c1C(=O)Nc1nnc(-c2ccc(Br)cc2)s1,,"inconclusive: 0.326 µM [falling, full curve, poor fit]"
CCOC(=O)c1cc(-c2ccccc2)n(CC(=O)Nc2ccc(OC)cc2OC)c1C,inconclusive: 24.2%,
Cn1nnc2cc(NC(=O)Nc3cccc(Cl)c3)ccc21,inconclusive: 6%,
NC(=O)c1ccc(N2CCN(c3ccccc3F)CC2)c([N+](=O)[O-])c1,inconclusive: 1.48%,
O=C(CCCCCN1C(=O)c2cccc3cccc(c23)C1=O)NCCO,,"inconclusive: 12.6 µM [falling, partial curve]"
CCn1c2ccccc2c2cc(NC(=O)c3ccc([N+](=O)[O-])cc3)ccc21,inconclusive: -6.38%,
Cc1ccsc1/C=N/NC(=O)CO,inactive,
Cc1cc(C(=O)CCl)c(C)n1-c1cccc(S(=O)(=O)N2CCOCC2)c1,inconclusive: -15.9%,
Cc1c(C=O)c(C=O)c(C)n1Cc1ccccc1,inconclusive: 1.17%,
COc1cc2cc[n+](Cc3ccc([N+](=O)[O-])cc3)cc2cc1OC,inactive,
C=CCNc1nc(-c2ccc(O)c(C(N)=O)c2)cs1,,"inconclusive: 1.46 µM [rising, full curve, poor fit]"
Cc1ccc(S(=O)(=O)Nc2ccc(S(=O)(=O)Nc3cc(C)nc(C)n3)cc2)cc1,inconclusive: -11.4%,
S=C(c1ccc(-c2ccccc2Cl)o1)N1CCCCC1,,"inconclusive: 29.1 µM [rising, partial curve, poor fit]"
CCCCNc1c(-c2ccc(-c3ccc(OC)cc3)c(OC)c2)nc2ccccn12,inconclusive: -0.651%,
CC(=O)c1c(COC(=O)c2ccccc2)nc2ccccc2[n+]1[O-],inconclusive: 7.65%,
Cc1cc([N+](=O)[O-])cc(/C=N/n2c(C)nc3ccccc3c2=O)c1O,inconclusive: 16%,
COc1ccccc1-c1nnc(SC2CCc3ccccc3NC2=O)s1 (stereo not drawn),inactive,
O=C(Cn1cnc2cc([N+](=O)[O-])ccc2c1=O)Nc1ccccc1Cl,,"inconclusive: 2.82 µM [falling, partial curve, poor fit]"
CN1CCN(c2nc(-c3cccnc3)nc3scc(-c4ccccc4)c23)CC1,inconclusive: -2.42%,
CCOc1ccc(NC(=O)Cn2cc(C(=O)CC)c3ccccc32)cc1,inconclusive: 4.49%,
CC(=O)/C(=N/Nc1ccc(Br)cc1)N1CCCc2ccccc21,inconclusive: 16.5%,
O=C(CSc1nnc(-c2ccc(F)cc2)c2ccccc12)Nc1c(F)cccc1F,inconclusive: -28.8%,
O=C(N/N=C/c1cc(Br)c(Br)o1)C(O)c1ccccc1 (stereo not drawn),inconclusive: -16.9%,
C=C1C(O)[C@@H]2O[C@]3(CC[C@H](/C=C/C(C)[C@@H]4CC(C)=CC5(O[C@H](C[C@@](C)(O)CO)CCC5O)O4)O3)CC[C@H]2O[C@@H]1C(O)CC(C)[C@H]1OC2(CCCCO2)CCC1C (stereo partly drawn),inconclusive: 13.9%,

# Rewritten with bars between the fields: four of the compounds above.
SMILES | activity change, negative = inhibition | Potency
Cc1cc([N+](=O)[O-])cc(/C=N/n2c(C)nc3ccccc3c2=O)c1O | inconclusive: 16% | 
COc1ccccc1-c1nnc(SC2CCc3ccccc3NC2=O)s1 (stereo not drawn) | inactive | 
O=C(Cn1cnc2cc([N+](=O)[O-])ccc2c1=O)Nc1ccccc1Cl |  | inconclusive: 2.82 µM [falling, partial curve, poor fit]
CN1CCN(c2nc(-c3cccnc3)nc3scc(-c4ccccc4)c23)CC1 | inconclusive: -2.42% | 

# Source: PubChem BioAssay AID493014 (National Center for Advancing Translational Sciences (NCATS), 2011)
